{"sequences": {"note": "Sequences of proteins named here, by UniProt entry; tags and fusion partners are left off.", "UniProt Q8C0T5": "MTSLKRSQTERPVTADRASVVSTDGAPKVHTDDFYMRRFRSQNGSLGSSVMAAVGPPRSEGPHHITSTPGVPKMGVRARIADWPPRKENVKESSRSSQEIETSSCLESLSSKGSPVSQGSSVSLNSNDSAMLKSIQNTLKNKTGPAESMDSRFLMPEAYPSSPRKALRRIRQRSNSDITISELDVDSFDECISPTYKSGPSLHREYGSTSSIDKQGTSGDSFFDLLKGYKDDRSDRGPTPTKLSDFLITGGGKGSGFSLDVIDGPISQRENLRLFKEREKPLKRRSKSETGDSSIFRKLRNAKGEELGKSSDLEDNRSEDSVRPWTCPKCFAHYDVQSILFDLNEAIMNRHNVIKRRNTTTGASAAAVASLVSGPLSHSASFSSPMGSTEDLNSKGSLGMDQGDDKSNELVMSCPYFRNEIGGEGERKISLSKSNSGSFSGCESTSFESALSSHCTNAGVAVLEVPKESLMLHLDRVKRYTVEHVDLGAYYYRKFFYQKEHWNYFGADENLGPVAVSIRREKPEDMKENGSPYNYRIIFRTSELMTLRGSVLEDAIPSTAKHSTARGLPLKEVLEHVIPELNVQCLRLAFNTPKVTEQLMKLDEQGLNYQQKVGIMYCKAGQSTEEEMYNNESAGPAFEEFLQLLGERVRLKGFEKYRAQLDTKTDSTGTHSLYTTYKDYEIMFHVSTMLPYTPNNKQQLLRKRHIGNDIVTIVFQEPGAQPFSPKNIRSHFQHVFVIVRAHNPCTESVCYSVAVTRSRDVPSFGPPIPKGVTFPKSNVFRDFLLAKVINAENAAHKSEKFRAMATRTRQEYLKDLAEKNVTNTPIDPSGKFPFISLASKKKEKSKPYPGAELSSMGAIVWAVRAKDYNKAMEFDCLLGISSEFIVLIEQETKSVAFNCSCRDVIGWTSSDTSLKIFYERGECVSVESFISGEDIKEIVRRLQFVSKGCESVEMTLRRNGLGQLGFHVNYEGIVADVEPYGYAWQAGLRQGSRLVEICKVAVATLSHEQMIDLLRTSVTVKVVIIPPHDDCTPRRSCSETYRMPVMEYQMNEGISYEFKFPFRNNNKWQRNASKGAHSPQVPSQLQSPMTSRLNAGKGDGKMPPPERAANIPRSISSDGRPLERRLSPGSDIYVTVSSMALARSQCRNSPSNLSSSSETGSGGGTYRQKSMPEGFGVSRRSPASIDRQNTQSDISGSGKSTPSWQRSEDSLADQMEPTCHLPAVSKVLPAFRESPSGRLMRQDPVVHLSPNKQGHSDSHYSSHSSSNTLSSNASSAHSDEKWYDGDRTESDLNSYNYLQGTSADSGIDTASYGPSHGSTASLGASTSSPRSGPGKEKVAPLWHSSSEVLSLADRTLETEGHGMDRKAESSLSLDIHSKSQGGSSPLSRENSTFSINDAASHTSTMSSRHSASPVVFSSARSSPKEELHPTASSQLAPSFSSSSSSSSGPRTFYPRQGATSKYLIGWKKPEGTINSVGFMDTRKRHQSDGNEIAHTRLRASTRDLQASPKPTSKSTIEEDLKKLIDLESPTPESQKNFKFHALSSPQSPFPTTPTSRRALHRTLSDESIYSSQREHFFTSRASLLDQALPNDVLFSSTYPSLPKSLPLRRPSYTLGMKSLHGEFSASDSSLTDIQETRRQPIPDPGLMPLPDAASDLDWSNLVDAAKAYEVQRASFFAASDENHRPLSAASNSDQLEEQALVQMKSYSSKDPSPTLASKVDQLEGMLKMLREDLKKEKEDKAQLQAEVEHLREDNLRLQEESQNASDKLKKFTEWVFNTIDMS", "UniProt A2AHG0": "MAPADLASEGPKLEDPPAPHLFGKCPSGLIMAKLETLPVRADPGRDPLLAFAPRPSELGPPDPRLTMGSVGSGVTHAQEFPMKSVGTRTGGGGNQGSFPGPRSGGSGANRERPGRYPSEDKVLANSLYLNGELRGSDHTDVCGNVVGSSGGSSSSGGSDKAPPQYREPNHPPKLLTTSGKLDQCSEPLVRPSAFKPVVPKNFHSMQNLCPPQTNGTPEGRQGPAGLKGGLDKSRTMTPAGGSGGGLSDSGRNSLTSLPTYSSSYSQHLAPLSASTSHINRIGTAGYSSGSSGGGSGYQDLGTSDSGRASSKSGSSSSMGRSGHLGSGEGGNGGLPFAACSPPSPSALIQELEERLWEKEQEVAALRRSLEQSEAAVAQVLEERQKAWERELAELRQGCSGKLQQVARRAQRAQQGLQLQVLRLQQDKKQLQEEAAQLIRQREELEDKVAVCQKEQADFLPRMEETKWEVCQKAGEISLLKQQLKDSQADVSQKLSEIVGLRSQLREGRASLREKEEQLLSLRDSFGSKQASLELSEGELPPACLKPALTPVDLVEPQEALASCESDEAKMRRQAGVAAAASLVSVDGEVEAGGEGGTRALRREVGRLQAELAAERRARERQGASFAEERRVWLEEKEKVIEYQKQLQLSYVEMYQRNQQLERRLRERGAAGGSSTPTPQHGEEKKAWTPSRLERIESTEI", "UniProt Q6R891": "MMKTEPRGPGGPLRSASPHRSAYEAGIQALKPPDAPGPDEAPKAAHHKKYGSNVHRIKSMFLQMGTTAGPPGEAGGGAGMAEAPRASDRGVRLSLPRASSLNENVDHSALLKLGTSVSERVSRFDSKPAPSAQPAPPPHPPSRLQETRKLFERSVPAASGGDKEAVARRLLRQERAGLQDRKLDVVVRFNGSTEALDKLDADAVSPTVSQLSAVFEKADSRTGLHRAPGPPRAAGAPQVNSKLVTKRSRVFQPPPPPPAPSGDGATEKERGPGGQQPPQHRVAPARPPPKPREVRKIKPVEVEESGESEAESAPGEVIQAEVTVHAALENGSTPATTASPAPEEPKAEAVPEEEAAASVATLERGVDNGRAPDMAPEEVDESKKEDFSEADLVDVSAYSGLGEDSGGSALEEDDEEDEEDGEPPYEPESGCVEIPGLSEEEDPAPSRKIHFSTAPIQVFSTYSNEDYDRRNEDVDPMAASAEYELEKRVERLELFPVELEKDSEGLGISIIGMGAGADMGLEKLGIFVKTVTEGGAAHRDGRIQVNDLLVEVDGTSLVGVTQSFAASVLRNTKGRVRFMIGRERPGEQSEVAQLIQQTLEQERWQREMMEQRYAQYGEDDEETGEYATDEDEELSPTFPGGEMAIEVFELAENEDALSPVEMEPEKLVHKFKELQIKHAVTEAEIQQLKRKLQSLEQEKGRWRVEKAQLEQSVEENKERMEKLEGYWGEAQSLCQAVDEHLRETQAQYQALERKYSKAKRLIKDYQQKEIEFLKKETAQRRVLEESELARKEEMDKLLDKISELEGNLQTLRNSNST", "UniProt Q7TPR4": "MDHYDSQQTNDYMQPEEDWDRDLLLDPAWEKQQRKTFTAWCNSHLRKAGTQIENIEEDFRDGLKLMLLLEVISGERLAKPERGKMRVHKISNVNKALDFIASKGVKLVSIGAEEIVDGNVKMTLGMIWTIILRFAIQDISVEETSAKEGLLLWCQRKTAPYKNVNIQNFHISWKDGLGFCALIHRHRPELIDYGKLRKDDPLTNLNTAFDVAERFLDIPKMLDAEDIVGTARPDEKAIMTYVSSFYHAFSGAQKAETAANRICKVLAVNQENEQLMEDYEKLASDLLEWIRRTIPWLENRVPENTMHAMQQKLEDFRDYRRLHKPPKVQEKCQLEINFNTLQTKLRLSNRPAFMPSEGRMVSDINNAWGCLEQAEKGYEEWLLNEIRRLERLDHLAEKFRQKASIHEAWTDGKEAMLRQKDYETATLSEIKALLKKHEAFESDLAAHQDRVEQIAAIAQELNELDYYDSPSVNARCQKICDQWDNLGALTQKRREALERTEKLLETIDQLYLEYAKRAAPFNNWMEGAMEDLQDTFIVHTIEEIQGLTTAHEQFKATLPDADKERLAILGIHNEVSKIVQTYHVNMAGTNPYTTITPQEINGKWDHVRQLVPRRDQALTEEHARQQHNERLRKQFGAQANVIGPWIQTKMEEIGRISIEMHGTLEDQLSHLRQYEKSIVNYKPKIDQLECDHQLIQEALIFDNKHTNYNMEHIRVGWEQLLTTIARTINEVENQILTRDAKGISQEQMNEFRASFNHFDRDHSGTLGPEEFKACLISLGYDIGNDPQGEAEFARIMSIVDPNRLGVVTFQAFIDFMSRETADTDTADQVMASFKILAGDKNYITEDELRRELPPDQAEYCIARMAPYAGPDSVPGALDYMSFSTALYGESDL"}, "source": "paper doi:10.1101/2021.02.12.430872", "note": "Results are given in words; binding and its absence hold for the method and conditions named. In cells and extracts the contact can be indirect. A yes stands for co-enrichment or nearness to the bait. Other partners may have been found."}
{"biological_target": "Signal-induced proliferation-associated 1 (SIPA1)-like 1 (SIPA1L1) (mouse (endogenous in brain)) (UniProt Q8C0T5)", "test": "affinity purification with mass spectrometry"}
{"molecule": "LZTS3/Pro-SAPiP1 (from UniProt A2AHG0 1-700)", "binding": "binds"}
{"molecule": "spinophilin (neurabin-2/PP1R9B) (from UniProt Q6R891 1-817)", "binding": "binds"}
{"molecule": "α-actinin-1 (from UniProt Q7TPR4 1-892)", "binding": "binds"}
{"molecule": "drebrin (protein, UniProt Q9QXS6 1-706) MAGVSFSGHRLELLAAYEEVIREESAADWALYTYEDGSDDLKLAASGEGGLQELSGHFENQKVMYGFCSVKDSQAALPKYVLINWVGEDVPDARKCACASHVAKVAEFFQGVDVIVNASSVEDIDAGAIGQRLSNGLARLSSPVLHRLRLREDENAEPVGTTYQKTDAAVEMKRINREQFWEQAKKEEELRKEEERKKALDARLRFEQERMEQERQEQEERERRYREREQQIEEHRRKQQSLEAEEAKRRLKEQSIFGDQRDEEEESQMKKSESEVEEAAAIIAQRPDNPREFFRQQERVASASGGSCDAPAPAPFNHRPGRPYCPFIKASDSGPSSSSSSSSSPPRTPFPYITCHRTPNLSSSLPCSHLDSHRRMAPTPIPTRSPSDSSTASTPIAEQIERALDEVTSSQPPPPPPPPPPTQEAQETTPSLDEELSKEAKVTAAPEVWAGCAAEPPQAQEPPLLQSSPLEDSMCTESPEQAALAAPAEPAASVTSVADVHAADTIETTTATTDTTIANNVTPAAASLIDLWPGNGEEASTLQAEPRVPTPPSGAEASLAEVPLLNEAAQEPLPPVGEGCANLLNFDELPEPPATFCDPEEEVGETLAASQVLTMPSALEEVDQVLEQELEPEPHLLTNGETTQKEGTQASEGYFSQSQEEEFAQSEEPCAKVPPPVFYNKPPEIDITCWDADPVPEEEEGFEGGD", "binding": "binds"}
{"molecule": "LZTS1/PSD-Zip70 (protein, UniProt P60853 1-599) MGSVSSLISGHSFHSKHCRASQYKLRKSSHLKKLNRYSDGLLRFGFSQDSGRGKSSSKMGKSEDFFYIKVSQKARGSHRPDYTALSSGDIGGQTGVDFDPATPPKLMPFSNQLEMSSDKGAVRPTAFKPVLPRSGAILHSSPESTSHQLHPMPPDKPKEQELKPGLCSGALSDSGRNSMSSLPTHSTTSSYQLDPLVTPVGPTSRFGGSAHNITQGIILQDSNMMSLKALSFSDGGSKLAHPGKADKGASCVRSPLSTDECTIQELEQKLLQRETALQKLQRSFDEKEFASGQTFEERPRRTRDELECLEPKSKLKPPSQKSQRTQQVLQLQVLQLQQEKRQLRQELESLMKEQDLLETKLRSYEREKTNFAPALEETQWEVCQKSGEISLLKQQLKESQLEVNTKASEILSLKAQLKDTRGKLDGMELKTQDLESALRTKGLELEVCENELQRKKNEAELLREKVNLLEQELMELRAQAALHPAPLGPPGVGLTFSEDIPALQRELDRLRAELKEERQGHDQMSSGFQHERLVWKEEKEKVIQYQRQLQQSYLAMYQRNQRLEKALQQLARGDGPGEPFEIDLEGADIPYEDIIATEI", "binding": "binds"}
